Test results reported in paper PMC7880997.
These are yes or no findings as the source states them, for the method shown. In cells and extracts the contact can be indirect. A yes stands for co-enrichment or nearness to the bait. Other partners may have been found. Tags and fused reporters may be left off the sequences shown.

By UniProt entry, the sequences of proteins in these tests, tags left out. Where a name states a change or a piece, a line headed by the entry shows the natural chain unless it says otherwise.
UniProt Q9VHG6: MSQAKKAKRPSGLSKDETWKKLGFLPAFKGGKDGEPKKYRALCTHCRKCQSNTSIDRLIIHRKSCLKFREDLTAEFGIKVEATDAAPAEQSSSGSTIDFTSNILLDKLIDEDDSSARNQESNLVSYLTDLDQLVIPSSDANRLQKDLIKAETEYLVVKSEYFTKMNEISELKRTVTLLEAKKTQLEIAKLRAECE

Target: T1, GFP-tagged recombinant WT CTCF N-terminus (dmCTCF residues 1-293) (Drosophila melanogaster) (UniProt Q9VS55)
T1 sequence: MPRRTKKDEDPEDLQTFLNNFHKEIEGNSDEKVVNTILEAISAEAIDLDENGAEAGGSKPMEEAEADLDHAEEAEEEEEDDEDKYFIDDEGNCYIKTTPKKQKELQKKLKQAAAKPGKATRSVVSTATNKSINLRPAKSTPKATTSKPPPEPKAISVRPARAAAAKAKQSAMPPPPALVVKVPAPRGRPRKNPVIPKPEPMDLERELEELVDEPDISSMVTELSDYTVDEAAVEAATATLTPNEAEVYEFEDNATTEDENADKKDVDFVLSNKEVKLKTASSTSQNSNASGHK
Assay: affinity purification with mass spectrometry; purified GFP-3C-CTCF1-293-3C-His6 immobilised on GFP binder beads, incubated with Drosophila embryo nuclear extract (IP buffer, 150 mM potassium acetate, 0.2% Igepal, 3 h, 4 °C); eluted with 3C protease; biological duplicates; only the target purified

Insulator binding factor 1 (Ibf1)
binding: binds

Insulator binding factor 2 (Ibf2) (from UniProt Q9VHG6)
binding: binds
